These are yes or no findings as the source states them, for the method shown. Binding seen in cells or lysates may run through a third protein. Some binding calls cover weakened binding; strength is not graded here. Tags and fused reporters may be left off the sequences shown.
What was measured:
[1] = molecular target: GFPs10 tagged p65, Q04206; test: split reporter; tripartite split GFP complementation in the cell: GFPs10- and GFPs11-tagged NF-κB proteins co-transfected with the detector GFPs1-9 in CHO-CD14 cells; fluorescence microscopy after overnight incubation; settings: remark: other sources report otherwise
[2] = molecular target: T1, GFPs11 tagged IκBα, P25963; test: as above; settings: remark: other sources report otherwise
T1 chain: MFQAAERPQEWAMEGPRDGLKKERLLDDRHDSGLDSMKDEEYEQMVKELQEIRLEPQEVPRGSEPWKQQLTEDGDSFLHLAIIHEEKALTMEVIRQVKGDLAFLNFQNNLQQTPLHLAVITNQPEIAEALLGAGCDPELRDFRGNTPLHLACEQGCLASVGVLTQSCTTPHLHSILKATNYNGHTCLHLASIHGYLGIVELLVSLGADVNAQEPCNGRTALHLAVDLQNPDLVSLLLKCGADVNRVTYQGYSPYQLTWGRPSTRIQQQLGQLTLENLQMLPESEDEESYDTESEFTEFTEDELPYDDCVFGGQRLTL

B1: GFPs11 tagged IκBα, P25963 1-317 (protein)
chain: T1 chain
[1]
  binding: binds
[2]
  binding: no binding
